Assay results published in paper PMC5509727.
No constants are given. Whether binding was seen depends on the method and setting. In cells and extracts the contact can be indirect. Some entries that bind do so weakly or less than the wild type. Sequences can lack the tags named with a protein.

T1: pEGFP-DGKδ expressed in NIH3T3 cells (human) (UniProt Q16760)
T1 sequence: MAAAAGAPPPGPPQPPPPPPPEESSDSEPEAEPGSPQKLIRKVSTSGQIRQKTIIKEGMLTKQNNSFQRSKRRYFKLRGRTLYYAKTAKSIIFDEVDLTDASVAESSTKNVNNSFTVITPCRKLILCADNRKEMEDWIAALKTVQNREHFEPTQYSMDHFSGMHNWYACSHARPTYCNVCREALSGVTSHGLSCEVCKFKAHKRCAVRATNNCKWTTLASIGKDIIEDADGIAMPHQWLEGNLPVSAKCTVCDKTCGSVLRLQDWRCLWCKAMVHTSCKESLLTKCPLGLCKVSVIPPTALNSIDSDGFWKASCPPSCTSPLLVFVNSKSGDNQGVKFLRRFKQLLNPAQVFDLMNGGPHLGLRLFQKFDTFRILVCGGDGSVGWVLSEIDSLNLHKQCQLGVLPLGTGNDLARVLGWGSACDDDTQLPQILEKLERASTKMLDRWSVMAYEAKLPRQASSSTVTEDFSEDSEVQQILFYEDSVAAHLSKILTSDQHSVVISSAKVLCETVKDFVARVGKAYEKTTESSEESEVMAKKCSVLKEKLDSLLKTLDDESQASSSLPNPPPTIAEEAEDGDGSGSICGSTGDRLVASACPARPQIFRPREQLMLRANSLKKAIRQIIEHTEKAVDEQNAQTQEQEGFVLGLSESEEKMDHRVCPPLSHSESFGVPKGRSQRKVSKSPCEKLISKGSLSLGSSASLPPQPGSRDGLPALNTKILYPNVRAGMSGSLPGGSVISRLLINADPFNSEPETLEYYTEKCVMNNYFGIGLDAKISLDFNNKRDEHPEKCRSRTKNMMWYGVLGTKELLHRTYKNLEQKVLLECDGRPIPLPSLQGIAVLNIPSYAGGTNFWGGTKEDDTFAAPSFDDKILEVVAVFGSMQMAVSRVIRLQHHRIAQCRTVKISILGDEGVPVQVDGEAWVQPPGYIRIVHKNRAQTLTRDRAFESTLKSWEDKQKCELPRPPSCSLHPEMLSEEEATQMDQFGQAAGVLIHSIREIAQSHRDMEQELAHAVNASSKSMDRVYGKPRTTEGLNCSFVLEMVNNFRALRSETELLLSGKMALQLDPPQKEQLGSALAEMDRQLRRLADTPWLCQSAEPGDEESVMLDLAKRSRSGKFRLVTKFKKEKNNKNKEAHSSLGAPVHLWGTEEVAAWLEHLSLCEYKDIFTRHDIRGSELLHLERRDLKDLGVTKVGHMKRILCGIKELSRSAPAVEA

T2: FLAG-IFT88 (pCMV-IFT88-3XFLAG) (UniProt Q61371)
T2 sequence: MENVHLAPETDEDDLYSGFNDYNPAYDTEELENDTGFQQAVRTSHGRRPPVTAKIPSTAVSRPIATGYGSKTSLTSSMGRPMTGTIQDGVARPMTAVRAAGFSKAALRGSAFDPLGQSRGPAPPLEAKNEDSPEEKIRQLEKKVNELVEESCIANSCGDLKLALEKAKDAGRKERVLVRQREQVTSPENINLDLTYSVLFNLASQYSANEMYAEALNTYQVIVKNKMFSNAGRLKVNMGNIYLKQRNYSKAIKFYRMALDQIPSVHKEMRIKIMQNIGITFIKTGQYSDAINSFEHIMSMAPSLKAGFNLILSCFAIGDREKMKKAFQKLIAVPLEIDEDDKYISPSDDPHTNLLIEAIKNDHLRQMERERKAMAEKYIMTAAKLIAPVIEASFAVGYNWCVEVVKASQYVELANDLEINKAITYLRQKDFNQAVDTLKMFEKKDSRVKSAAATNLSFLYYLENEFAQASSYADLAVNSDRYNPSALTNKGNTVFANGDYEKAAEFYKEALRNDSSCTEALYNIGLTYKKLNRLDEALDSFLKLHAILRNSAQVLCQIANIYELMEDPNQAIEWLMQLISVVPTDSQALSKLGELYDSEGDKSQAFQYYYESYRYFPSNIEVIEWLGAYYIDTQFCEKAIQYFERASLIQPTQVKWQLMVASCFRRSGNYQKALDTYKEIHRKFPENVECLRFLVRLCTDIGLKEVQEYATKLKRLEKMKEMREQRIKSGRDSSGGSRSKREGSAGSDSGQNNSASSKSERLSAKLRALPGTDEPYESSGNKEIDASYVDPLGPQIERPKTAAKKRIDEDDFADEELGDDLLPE

B1: FLAG-IFT88 expressed in NIH3T3 cells (protein, UniProt Q61371 1-824)
chain: MENVHLAPETDEDDLYSGFNDYNPAYDTEELENDTGFQQAVRTSHGRRPPVTAKIPSTAVSRPIATGYGSKTSLTSSMGRPMTGTIQDGVARPMTAVRAAGFSKAALRGSAFDPLGQSRGPAPPLEAKNEDSPEEKIRQLEKKVNELVEESCIANSCGDLKLALEKAKDAGRKERVLVRQREQVTSPENINLDLTYSVLFNLASQYSANEMYAEALNTYQVIVKNKMFSNAGRLKVNMGNIYLKQRNYSKAIKFYRMALDQIPSVHKEMRIKIMQNIGITFIKTGQYSDAINSFEHIMSMAPSLKAGFNLILSCFAIGDREKMKKAFQKLIAVPLEIDEDDKYISPSDDPHTNLLIEAIKNDHLRQMERERKAMAEKYIMTAAKLIAPVIEASFAVGYNWCVEVVKASQYVELANDLEINKAITYLRQKDFNQAVDTLKMFEKKDSRVKSAAATNLSFLYYLENEFAQASSYADLAVNSDRYNPSALTNKGNTVFANGDYEKAAEFYKEALRNDSSCTEALYNIGLTYKKLNRLDEALDSFLKLHAILRNSAQVLCQIANIYELMEDPNQAIEWLMQLISVVPTDSQALSKLGELYDSEGDKSQAFQYYYESYRYFPSNIEVIEWLGAYYIDTQFCEKAIQYFERASLIQPTQVKWQLMVASCFRRSGNYQKALDTYKEIHRKFPENVECLRFLVRLCTDIGLKEVQEYATKLKRLEKMKEMREQRIKSGRDSSGGSRSKREGSAGSDSGQNNSASSKSERLSAKLRALPGTDEPYESSGNKEIDASYVDPLGPQIERPKTAAKKRIDEDDFADEELGDDLLPE
B2: CFP-Sec31A (protein, UniProt O94979 1-1220)
chain: MKLKEVDRTAMQAWSPAQNHPIYLATGTSAQQLDATFSTNASLEIFELDLSDPSLDMKSCATFSSSHRYHKLIWGPYKMDSKGDVSGVLIAGGENGNIILYDPSKIIAGDKEVVIAQNDKHTGPVRALDVNIFQTNLVASGANESEIYIWDLNNFATPMTPGAKTQPPEDISCIAWNRQVQHILASASPSGRATVWDLRKNEPIIKVSDHSNRMHCSGLAWHPDVATQMVLASEDDRLPVIQMWDLRFASSPLRVLENHARGILAIAWSMADPELLLSCGKDAKILCSNPNTGEVLYELPTNTQWCFDIQWCPRNPAVLSAASFDGRISVYSIMGGSTDGLRQKQVDKLSSSFGNLDPFGTGQPLPPLQIPQQTAQHSIVLPLKKPPKWIRRPVGASFSFGGKLVTFENVRMPSHQGAEQQQQQHHVFISQVVTEKEFLSRSDQLQQAVQSQGFINYCQKKIDASQTEFEKNVWSFLKVNFEDDSRGKYLELLGYRKEDLGKKIALALNKVDGANVALKDSDQVAQSDGEESPAAEEQLLGEHIKEEKEESEFLPSSGGTFNISVSGDIDGLITQALLTGNFESAVDLCLHDNRMADAIILAIAGGQELLARTQKKYFAKSQSKITRLITAVVMKNWKEIVESCDLKNWREALAAVLTYAKPDEFSALCDLLGTRLENEGDSLLQTQACLCYICAGNVEKLVACWTKAQDGSHPLSLQDLIEKVVILRKAVQLTQAMDTSTVGVLLAAKMSQYANLLAAQGSIAAALAFLPDNTNQPNIMQLRDRLCRAQGEPVAGHESPKIPYEKQQLPKGRPGPVAGHHQMPRVQTQQYYPHGENPPPPGFIMHGNVNPNAAGQLPTSPGHMHTQVPPYPQPQPYQPAQPYPFGTGGSAMYRPQQPVAPPTSNAYPNTPYISSASSYTGQSQLYAAQHQASSPTSSPATSFPPPPSSGASFQHGGPGAPPSSSAYALPPGTTGTLPAASELPASQRTGPQNGWNDPPALNRVPKKKKMPENFMPPVPITSPIMNPLGDPQSQMLQQQPSAPVPLSSQSSFPQPHLPGGQPFHGVQQPLGQTGMPPSFSKPNIEGAPGAPIGNTFQHVQSLPTKKITKKPIPDEHLILKTTFEDLIQRCLSSATDPQTKRKLDDASKRLEFLYDKLREQTLSPTITSGLHNIARSIETRNYSEGLTMHTHIVSTSNFSETSAFMPVLKVVLTQANKLGV

Legend:
[1] = molecular target: T1, pEGFP-DGKδ expressed in NIH3T3 cells (human); assay: proximity ligation; Duolink in situ PLA in NIH3T3 cells transfected with FLAG-IFT88 and pEGFP-DGKδ
[2] = molecular target: T2, FLAG-IFT88 (pCMV-IFT88-3XFLAG); assay: co-IP; 293T cells co-transfected; lysates in RIPA precipitated with anti-FLAG M2 affinity gel, Western blot with anti-GFP or anti-Sec31A

| Binder | binding [1] | binding [2] |
| --- | --- | --- |
| B1 | binds |  |
| B2 |  | binds |
